{"source": "PubChem BioAssay AID1259254 (NCATS, 2017)", "assay": "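Finding genes that stop cells copying their DNA twice in one cycle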 (primary screen)", "cell system": "human HCT116 colorectal cancer cells", "knock-down reagent": "single siRNA against human genes", "time to read-out": "3 days", "detection": "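Imaged Hoechst DNA stain sorts each cell into a cycle phase by DNA amount; per plate, G2 fraction set to 0% for non-targeting and 100% for GMNN siRNA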", "scale": "G2 robust z-score and G2 cells, % of GMNN control: higher = more G2 cells, more excess DNA replication", "call rule": "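Active siRNAs have a G2 robust z of 5 or more median absolute deviations over the median, which in these data means about 38% or higher of GMNN control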", "note": "The whole screen tested about 59,000 reagents; this is an unselected part. About 1,550 of them (2.6%) count as active. 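G2 share is only a proxy for re-replication; each gene was hit by three separate siRNAs, and active genes were retested.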 Reagents against one gene are numbered here. Further read-outs or replicates are left out here. No sequences are given here. Not given: the amount of reagent."}
{"target gene": "MATN1 (matrilin 1)", "reagent no.": 1, "G2 robust z-score": -0.0306, "G2 cells, % of GMNN control": 2.75, "Call": "inactive"}
{"target gene": "MATN1 (matrilin 1)", "reagent no.": 2, "G2 robust z-score": -0.107, "G2 cells, % of GMNN control": 2.21, "Call": "inactive"}
{"target gene": "MATN1 (matrilin 1)", "reagent no.": 3, "G2 robust z-score": 0.742, "G2 cells, % of GMNN control": 8.19, "Call": "inactive"}
{"target gene": "MISO1 (mitochondrial inner membrane subdomain organizer 1)", "reagent no.": 1, "G2 robust z-score": 0.42, "G2 cells, % of GMNN control": 5.92, "Call": "inactive"}
{"target gene": "MISO1 (mitochondrial inner membrane subdomain organizer 1)", "reagent no.": 2, "G2 robust z-score": 6.78, "G2 cells, % of GMNN control": 50.7, "Call": "active"}
{"target gene": "MISO1 (mitochondrial inner membrane subdomain organizer 1)", "reagent no.": 3, "G2 robust z-score": 2.59, "G2 cells, % of GMNN control": 21.2, "Call": "inactive"}
{"target gene": "IRS4 (insulin receptor substrate 4)", "reagent no.": 1, "G2 robust z-score": 4.87, "G2 cells, % of GMNN control": 37.2, "Call": "inactive"}
{"target gene": "IRS4 (insulin receptor substrate 4)", "reagent no.": 2, "G2 robust z-score": -0.0636, "G2 cells, % of GMNN control": 2.52, "Call": "inactive"}
{"target gene": "IRS4 (insulin receptor substrate 4)", "reagent no.": 3, "G2 robust z-score": 0.511, "G2 cells, % of GMNN control": 6.56, "Call": "inactive"}
{"target gene": "HP (haptoglobin)", "reagent no.": 1, "G2 robust z-score": -1.09, "G2 cells, % of GMNN control": -4.67, "Call": "inactive"}
{"target gene": "HP (haptoglobin)", "reagent no.": 2, "G2 robust z-score": 0.324, "G2 cells, % of GMNN control": 5.24, "Call": "inactive"}
{"target gene": "HP (haptoglobin)", "reagent no.": 3, "G2 robust z-score": -0.0364, "G2 cells, % of GMNN control": 2.71, "Call": "inactive"}
{"target gene": "OGFRP1 (opioid growth factor receptor pseudogene 1)", "reagent no.": 1, "G2 robust z-score": -0.731, "G2 cells, % of GMNN control": -2.18, "Call": "inactive"}
{"target gene": "OGFRP1 (opioid growth factor receptor pseudogene 1)", "reagent no.": 2, "G2 robust z-score": -0.0206, "G2 cells, % of GMNN control": 2.82, "Call": "inactive"}
{"target gene": "OGFRP1 (opioid growth factor receptor pseudogene 1)", "reagent no.": 3, "G2 robust z-score": 1.34, "G2 cells, % of GMNN control": 12.4, "Call": "inactive"}
{"target gene": "RAB22A (RAB22A, member RAS oncogene family)", "reagent no.": 1, "G2 robust z-score": 0.477, "G2 cells, % of GMNN control": 6.32, "Call": "inactive"}
{"target gene": "RAB22A (RAB22A, member RAS oncogene family)", "reagent no.": 2, "G2 robust z-score": 0.029, "G2 cells, % of GMNN control": 3.17, "Call": "inactive"}
{"target gene": "RAB22A (RAB22A, member RAS oncogene family)", "reagent no.": 3, "G2 robust z-score": -0.764, "G2 cells, % of GMNN control": -2.41, "Call": "inactive"}

The list goes on; the last 3 above are carried over.
{"target gene": "RAB22A (RAB22A, member RAS oncogene family)", "reagent no.": 1, "G2 robust z-score": 0.477, "G2 cells, % of GMNN control": 6.32, "Call": "inactive"}
{"target gene": "RAB22A (RAB22A, member RAS oncogene family)", "reagent no.": 2, "G2 robust z-score": 0.029, "G2 cells, % of GMNN control": 3.17, "Call": "inactive"}
{"target gene": "RAB22A (RAB22A, member RAS oncogene family)", "reagent no.": 3, "G2 robust z-score": -0.764, "G2 cells, % of GMNN control": -2.41, "Call": "inactive"}
{"target gene": "EPYC (epiphycan)", "reagent no.": 1, "G2 robust z-score": -0.414, "G2 cells, % of GMNN control": 0.0578, "Call": "inactive"}
{"target gene": "EPYC (epiphycan)", "reagent no.": 2, "G2 robust z-score": 0.297, "G2 cells, % of GMNN control": 5.05, "Call": "inactive"}
{"target gene": "EPYC (epiphycan)", "reagent no.": 3, "G2 robust z-score": 1.33, "G2 cells, % of GMNN control": 12.3, "Call": "inactive"}
{"target gene": "DCLRE1B (DNA cross-link repair 1B)", "reagent no.": 1, "G2 robust z-score": -0.869, "G2 cells, % of GMNN control": -3.15, "Call": "inactive"}
{"target gene": "DCLRE1B (DNA cross-link repair 1B)", "reagent no.": 2, "G2 robust z-score": -0.863, "G2 cells, % of GMNN control": -3.11, "Call": "inactive"}
{"target gene": "DCLRE1B (DNA cross-link repair 1B)", "reagent no.": 3, "G2 robust z-score": 2.22, "G2 cells, % of GMNN control": 18.6, "Call": "inactive"}
{"target gene": "EIF4EBP1", "reagent no.": 1, "G2 robust z-score": -0.696, "G2 cells, % of GMNN control": -1.93, "Call": "inactive"}
{"target gene": "EIF4EBP1", "reagent no.": 2, "G2 robust z-score": -0.822, "G2 cells, % of GMNN control": -2.81, "Call": "inactive"}
{"target gene": "EIF4EBP1", "reagent no.": 3, "G2 robust z-score": -0.652, "G2 cells, % of GMNN control": -1.62, "Call": "inactive"}
{"target gene": "PCGF2 (polycomb group ring finger 2)", "reagent no.": 1, "G2 robust z-score": -0.909, "G2 cells, % of GMNN control": -3.43, "Call": "inactive"}
{"target gene": "PCGF2 (polycomb group ring finger 2)", "reagent no.": 2, "G2 robust z-score": -0.604, "G2 cells, % of GMNN control": -1.28, "Call": "inactive"}
{"target gene": "PCGF2 (polycomb group ring finger 2)", "reagent no.": 3, "G2 robust z-score": -0.264, "G2 cells, % of GMNN control": 1.11, "Call": "inactive"}
